Source: PubChem BioAssay AID504537 (National Center for Advancing Translational Sciences (NCATS), 2011)
Inconclusive results, whose numbers are uncertain, are shown with a selection of clear calls. Potencies of inconclusive entries are doubtful fits and often do not repeat. Activity calls are given as the source filed them. The rule behind the calls is not given here.

Sequences of proteins named here, by UniProt entry; tags and fusion partners are left off.
UniProt Q03164, whole entry, looked up: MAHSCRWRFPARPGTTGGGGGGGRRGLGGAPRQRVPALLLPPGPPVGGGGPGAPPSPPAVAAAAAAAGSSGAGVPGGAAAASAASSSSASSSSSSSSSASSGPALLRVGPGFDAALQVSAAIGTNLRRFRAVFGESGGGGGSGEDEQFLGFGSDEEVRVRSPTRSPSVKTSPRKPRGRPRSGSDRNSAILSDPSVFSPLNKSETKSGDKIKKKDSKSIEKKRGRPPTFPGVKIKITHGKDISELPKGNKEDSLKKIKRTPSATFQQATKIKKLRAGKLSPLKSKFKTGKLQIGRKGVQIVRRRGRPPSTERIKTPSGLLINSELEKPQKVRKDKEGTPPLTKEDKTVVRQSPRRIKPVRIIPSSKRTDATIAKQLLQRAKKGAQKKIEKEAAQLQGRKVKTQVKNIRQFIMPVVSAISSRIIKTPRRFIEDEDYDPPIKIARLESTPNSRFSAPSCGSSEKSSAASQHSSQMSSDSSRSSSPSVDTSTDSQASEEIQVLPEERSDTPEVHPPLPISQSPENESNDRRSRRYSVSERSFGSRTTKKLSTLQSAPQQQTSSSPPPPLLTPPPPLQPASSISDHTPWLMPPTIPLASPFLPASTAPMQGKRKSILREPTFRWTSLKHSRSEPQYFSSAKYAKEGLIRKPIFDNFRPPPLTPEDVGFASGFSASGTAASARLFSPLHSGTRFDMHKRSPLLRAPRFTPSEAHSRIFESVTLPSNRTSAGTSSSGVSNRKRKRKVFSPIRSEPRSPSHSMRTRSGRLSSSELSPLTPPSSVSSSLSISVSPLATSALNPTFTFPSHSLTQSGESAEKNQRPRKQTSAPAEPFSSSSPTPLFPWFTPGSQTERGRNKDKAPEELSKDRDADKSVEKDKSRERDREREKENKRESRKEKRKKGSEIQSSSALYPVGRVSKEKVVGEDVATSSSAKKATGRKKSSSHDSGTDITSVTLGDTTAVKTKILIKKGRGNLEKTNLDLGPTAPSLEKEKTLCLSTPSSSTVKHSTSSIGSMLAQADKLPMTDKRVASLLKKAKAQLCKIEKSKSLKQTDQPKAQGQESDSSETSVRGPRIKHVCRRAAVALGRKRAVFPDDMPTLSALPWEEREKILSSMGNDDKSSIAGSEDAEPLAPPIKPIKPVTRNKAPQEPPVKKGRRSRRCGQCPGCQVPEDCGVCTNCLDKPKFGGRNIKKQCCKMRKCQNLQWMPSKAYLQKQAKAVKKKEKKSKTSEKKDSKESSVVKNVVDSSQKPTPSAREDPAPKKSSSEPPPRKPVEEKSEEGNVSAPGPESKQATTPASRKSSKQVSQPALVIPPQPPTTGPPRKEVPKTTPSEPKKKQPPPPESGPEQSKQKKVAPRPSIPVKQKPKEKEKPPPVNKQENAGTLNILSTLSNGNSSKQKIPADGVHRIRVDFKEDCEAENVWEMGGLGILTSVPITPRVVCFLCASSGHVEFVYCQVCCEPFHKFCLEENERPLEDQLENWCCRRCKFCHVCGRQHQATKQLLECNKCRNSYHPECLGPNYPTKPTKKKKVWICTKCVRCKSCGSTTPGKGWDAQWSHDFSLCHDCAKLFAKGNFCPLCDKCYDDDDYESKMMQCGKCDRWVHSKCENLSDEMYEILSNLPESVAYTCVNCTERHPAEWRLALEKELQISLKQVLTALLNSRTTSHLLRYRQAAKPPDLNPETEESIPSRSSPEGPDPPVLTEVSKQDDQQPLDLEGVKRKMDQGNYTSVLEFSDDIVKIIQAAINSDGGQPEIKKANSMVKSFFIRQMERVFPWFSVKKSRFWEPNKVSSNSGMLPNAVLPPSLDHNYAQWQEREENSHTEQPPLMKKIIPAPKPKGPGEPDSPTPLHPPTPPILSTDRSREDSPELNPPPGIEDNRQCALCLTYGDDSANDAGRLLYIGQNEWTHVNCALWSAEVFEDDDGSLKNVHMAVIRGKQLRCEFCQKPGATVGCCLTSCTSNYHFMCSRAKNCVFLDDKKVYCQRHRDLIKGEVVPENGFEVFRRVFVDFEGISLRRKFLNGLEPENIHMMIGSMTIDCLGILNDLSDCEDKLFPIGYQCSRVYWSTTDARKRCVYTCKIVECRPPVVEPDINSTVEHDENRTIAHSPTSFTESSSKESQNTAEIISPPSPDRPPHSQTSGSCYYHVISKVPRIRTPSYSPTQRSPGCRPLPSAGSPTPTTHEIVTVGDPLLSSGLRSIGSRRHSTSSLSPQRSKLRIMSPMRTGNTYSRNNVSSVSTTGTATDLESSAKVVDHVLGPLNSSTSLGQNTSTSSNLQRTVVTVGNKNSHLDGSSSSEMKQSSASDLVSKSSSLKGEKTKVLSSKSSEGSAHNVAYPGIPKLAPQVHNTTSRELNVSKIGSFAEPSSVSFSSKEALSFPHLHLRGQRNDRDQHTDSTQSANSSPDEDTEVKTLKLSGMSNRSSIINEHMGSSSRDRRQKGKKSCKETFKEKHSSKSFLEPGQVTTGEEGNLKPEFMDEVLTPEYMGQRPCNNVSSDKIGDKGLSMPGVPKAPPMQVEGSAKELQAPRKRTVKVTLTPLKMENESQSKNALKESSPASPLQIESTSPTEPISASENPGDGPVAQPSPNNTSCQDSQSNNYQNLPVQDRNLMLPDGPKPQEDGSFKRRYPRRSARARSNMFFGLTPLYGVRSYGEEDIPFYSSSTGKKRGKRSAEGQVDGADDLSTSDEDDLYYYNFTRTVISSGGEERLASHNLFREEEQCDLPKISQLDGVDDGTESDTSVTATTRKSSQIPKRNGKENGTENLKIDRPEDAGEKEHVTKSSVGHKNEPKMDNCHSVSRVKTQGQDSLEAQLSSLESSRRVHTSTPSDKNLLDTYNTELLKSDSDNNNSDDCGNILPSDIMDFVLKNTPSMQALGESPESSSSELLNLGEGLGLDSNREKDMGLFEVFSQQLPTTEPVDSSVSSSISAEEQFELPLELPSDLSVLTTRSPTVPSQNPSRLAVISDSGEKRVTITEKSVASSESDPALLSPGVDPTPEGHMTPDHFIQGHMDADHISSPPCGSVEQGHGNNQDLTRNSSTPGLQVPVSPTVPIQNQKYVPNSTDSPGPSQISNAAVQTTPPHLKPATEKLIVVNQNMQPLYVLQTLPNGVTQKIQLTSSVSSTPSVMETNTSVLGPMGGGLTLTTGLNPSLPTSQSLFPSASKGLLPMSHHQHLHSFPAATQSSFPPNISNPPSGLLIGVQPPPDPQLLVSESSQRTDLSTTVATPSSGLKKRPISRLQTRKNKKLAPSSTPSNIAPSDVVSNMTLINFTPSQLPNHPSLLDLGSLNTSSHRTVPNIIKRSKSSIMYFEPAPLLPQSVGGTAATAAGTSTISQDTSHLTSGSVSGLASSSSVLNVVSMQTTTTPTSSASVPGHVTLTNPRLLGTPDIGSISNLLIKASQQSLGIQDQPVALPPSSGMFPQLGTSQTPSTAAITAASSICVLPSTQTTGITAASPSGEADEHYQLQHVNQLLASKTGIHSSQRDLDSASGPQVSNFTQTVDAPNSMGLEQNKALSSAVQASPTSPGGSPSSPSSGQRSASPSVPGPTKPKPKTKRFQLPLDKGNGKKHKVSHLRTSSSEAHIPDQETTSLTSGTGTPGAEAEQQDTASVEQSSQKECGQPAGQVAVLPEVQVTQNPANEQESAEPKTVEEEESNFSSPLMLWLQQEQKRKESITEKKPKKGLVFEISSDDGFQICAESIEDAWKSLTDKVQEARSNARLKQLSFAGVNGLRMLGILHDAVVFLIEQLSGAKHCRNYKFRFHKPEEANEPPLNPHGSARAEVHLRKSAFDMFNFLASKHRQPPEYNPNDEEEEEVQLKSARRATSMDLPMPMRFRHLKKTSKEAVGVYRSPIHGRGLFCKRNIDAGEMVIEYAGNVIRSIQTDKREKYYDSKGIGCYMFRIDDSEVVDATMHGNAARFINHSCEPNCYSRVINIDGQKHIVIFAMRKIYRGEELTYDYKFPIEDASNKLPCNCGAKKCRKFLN

Molecular target: Histone-lysine N-methyltransferase 2A (Homo sapiens) (UniProt Q03164)
Test: Inhibitor SAR for Compounds Targeting the Menin-MLL Interaction in MLL Related Leukemias: Competition With Fluorescein Labeled MLL-derived Peptide
Conditions: Menin-MLL fluorescein peptide fluorescence polarization competition
Text: qHTS Assay for Inhibitors Targeting the Menin-MLL Interaction in MLL Related Leukemias NIH Chemical Genomics Center [NCGC] NIH Molecular Libraries Probe Centers Network [MLPCN] MLPCN Grant: MH084875-01A1 Assay Submitter (PI): Jolanta Grembecka, Tomasz Cierpicki, University of Virginia Translocations of the MLL (Mixed Lineage Leukemia) gene are frequently found in human leukemias affecting both children and adults. Fusion of MLL to one of more than 60 genes results in generation of oncogenic proteins upregulating Hox genes, which are vital to blood cell development. Patients harboring fusion of the MLL gene suffer from aggressive leukemias and respond poorly to available therapies. All of the oncogenic fusion proteins have a preserved N-terminal fragment of MLL that has been identified to interact with menin. It has been recently discovered that association with menin is critical to the leukemogenic activity of the MLL fusion oncoproteins. Selective targeting of the menin-MLL interaction could provide an attractive therapeutic approach to develop novel drugs for MLL-related leukemias. Small molecules blocking the menin-MLL interaction should reverse the oncogenic potential of MLL fusion proteins. We have developed and optimized a fluorescence polarization-based assay for the identification of Menin-MLL inhibitors. The assay was run employing two different MLL-derived peptides. The present assay uses a 12 amino acid peptide labeled with fluorescein at its N-terminus. This peptide consists of the menin high affinity binding motif from MLL and is potently bound by menin. Another peptide with a mutated sequence, labeled with Texas Red, was used in parallel as a less stringent screen for inhibitors. The present assay was run to characterize initial structure activity relationships.
The Menin protein, the MLL-wild type (w.t.) derived peptide (N-terminal 12 amino acids), the MLL-derived peptide labeled with Texas Red and the MLL-w.t. peptide labeled with Fluorescein were kindly supplied by laboratory of Dr. Jolanta Grembecka, University of Virginia. All protein and peptide solutions were stored in single use aliquots at -80C. The Eu3+ Cyrptate-conjugated mouse monoclonal antibody anti-6 Histidine (Eu3+-AB) and the Streptavidin-XL665 conjugate (XL665) were purchased from Cisbio International (Bedford, MA). All antibody and XL665 conjugate solution stocks were stored in single use aliquots at -20C. The Buffer components for all assays were purchased from Sigma-Aldrich (St. Louis, MO) and Invitrogen (Carlsbad, CA). FP Assay Reagents: 1. FP reaction buffer: 50 mM Tris-HCl pH 7.5, 50 mM NaCl, 1mM DTT. Before use, 0.05% BSA is added. 2. Menin protein, MLL-w.t. labeled with fluorescein, MLL-mutant peptide labeled with texas red. Stored in singe use aliquots at -80C. 3. MLL-w.t. unlabeled peptide as positive control: 10 uM final in FP buffer. FP Assay Procedure: 1. Prepare Menin at 200 nM, MLL-w.t.-fluorescein at 25 nM, and MLL-mutant-texas red at 50 nM mixture in FP buffer. 2. Prepare Menin at 200 nM, MLL-w.t.-fluorescein at 25 nM, MLL-mutant-texas red at 50 nM, and 10 uM MLL-w.t. unlabeled mixture in FP buffer. 3. Prepare MLL-w.t.-fluorescein at 25 nM and MLL-mutant-texas red at 50 nM mixture in FP buffer. 3. Dispense 4 ul per well of reagent in step 1 in columns 2, 4 - 48 in a black 1536 well plate, dispense 4 ul per well of reagents from steps 2 and 3 in columns 1 and 3 respectively. Incubate plate at ambient for 15 minutes. 4. Transfer 23 nl per well of compound to plate and incubate at ambient for 1 hr. 5. Read fluorescence polarization for each label using the PerkinElmer Envision. Envision protocol for fluorescein: FITC FP Dual Enh Mirror, Excitation filter 480, Emission filter (1) P-pol 535, Emission filter (2) S-pol 535 Envision protocol for texas red: FP Dual Enh Mirror, Excitation filter 555, Emission filter (1) P-pol 632, Emission filter (2) S-pol 632

Compound	Potency	outcome
COc1ccccc1C(=O)Nc1ccnn1C1CCN(CC2CC=CCC2)CC1 (stereo not given)	inconclusive: 63.5 µM	
COC(=O)CCCN1CCC(n2nccc2NC(=O)c2ccccc2OC)CC1		inconclusive
O=C(Nc1ccnn1C1CCN(CC2CC=CCC2)CC1)c1ccc2c(c1)OCO2 (stereo not given)	inconclusive: 630 µM	
CCCCN1CCC(n2nccc2NC(=O)c2ccccc2OC)CC1		inconclusive
OC(c1ccccc1)(c1ccccc1)C1CCN(CCCOc2ccc(Br)cc2)CC1	inconclusive: 78.7 µM	
CC(C)c1ccc(OCCCN2CCC(C(O)(c3ccccc3)c3ccccc3)CC2)cc1	inconclusive: 444 µM	
OC(c1ccccc1)(c1ccccc1)C1CCN(CCCOc2ccc(-c3nn[nH]n3)cc2)CC1		inactive; interference with assay at higher dose, inactive up to 100 um
COc1cc(OC)cc(C(=O)Nc2ccnn2C2CCN(CC3CC=CCC3)CC2)c1 (stereo not given)	inconclusive: 1370 µM	
N#Cc1ccccc1OCCCN1CCC(C(O)(c2ccccc2)c2ccccc2)CC1	inconclusive: 380 µM	
O=C(Nc1ccnn1C1CCN(CC2CC=CCC2)CC1)c1ccccc1 (stereo not given)	inconclusive: 145 µM	
COc1ccccc1C(=O)Nc1ccnn1C1CCN(CC(C)C)CC1		inconclusive
N#Cc1ccc(OCCCN2CCC(C(O)(c3ccccc3)c3ccccc3)CC2)cc1F	active: 26.5 µM	
COc1cccc(OCCCN2CCC(C(O)(c3ccccc3)c3ccccc3)CC2)c1	inconclusive: 601 µM	
NC(=O)c1ccc(OCCCN2CCC(C(O)(c3ccccc3)c3ccccc3)CC2)cc1	inconclusive: 500 µM	
O=C(Nc1ccnn1C1CCN(CC2CC=CCC2)CC1)C1CCCCC1 (stereo not given)	inconclusive: 261 µM	
O=C(Nc1ccnn1C1CCN(CC2CC=CCC2)CC1)c1ccc(F)cc1 (stereo not given)	inconclusive: 73.2 µM	
N#Cc1ccc(OCCCN2CCC(C(=O)c3ccccc3)CC2)cc1	inconclusive: 275 µM	
COc1ccccc1C(=O)Nc1ccnn1C1CCN(CCCc2ccccc2)CC1		inconclusive
O=C(Nc1ccnn1C1CCN(CC2CC=CCC2)CC1)c1ccc(Cl)cc1 (stereo not given)	inconclusive: 66.2 µM	
OC(c1ccccc1)(c1ccccc1)C1CCN(CCCOc2ccccc2Cl)CC1	inconclusive: 179 µM	

In another format: results already given.
Compound | Potency | outcome
NC(=O)c1ccc(OCCCN2CCC(C(O)(c3ccccc3)c3ccccc3)CC2)cc1 | inconclusive: 500 µM | 
N#Cc1ccc(OCCCN2CCC(C(=O)c3ccccc3)CC2)cc1 | inconclusive: 275 µM | 

The list goes on.

Compound	Potency	outcome
OC(c1ccccc1)(c1ccccc1)C1CCN(CCCOc2ccc(C(F)(F)F)cc2)CC1	active: 52 µM	
O=C(Nc1ccnn1C1CCN(CC2CC=CCC2)CC1)c1ccccn1 (stereo not given)	inconclusive: 595 µM	
OC(c1ccccc1)(c1ccccc1)C1CCN(CCCOc2ccc(F)cc2)CC1	inconclusive: 184 µM	
NCc1ccc(OCCCN2CCC(C(O)(c3ccccc3)c3ccccc3)CC2)cc1	active: 7.6 µM	
N#Cc1ccc(COCCN2CCC(C(O)(c3ccccc3)c3ccccc3)CC2)cc1		inactive; no saturation, 50% inh at 1mm
O=C(Nc1ccnn1C1CCN(CC2CC=CCC2)CC1)c1cccc(F)c1 (stereo not given)	inconclusive: 432 µM	
CC(C)c1ccc(OCCCN2CCC(=C(c3ccccc3)c3ccccc3)CC2)cc1		inactive; no saturation, 15% inh at 1mm
c1ccc(OCCCN2CCC(=C(c3ccccc3)c3ccccc3)CC2)cc1		inactive; no saturation, 42% inh at 2mm
N#Cc1ccc(OCCN2CCC(C(O)(c3ccccc3)c3ccccc3)CC2)cc1	inconclusive: 500 µM	
FC(F)(F)c1ccc(OCCCN2CCC(C(c3ccccc3)c3ccccc3)CC2)cc1		inactive; no saturation, 36% inh at 2mm
COc1ccccc1OCCCN1CCC(C(O)(c2ccccc2)c2ccccc2)CC1	inconclusive: 907 µM	
OC(c1ccccc1)(c1ccccc1)C1CCN(CCCOCc2ccc(Cl)cc2)CC1	inconclusive: 1000 µM	
N#Cc1ccc(OCCCN2CCC(C(c3ccccc3)c3ccccc3)CC2)cc1F	inconclusive: 262 µM	
O=C(Nc1ccnn1C1CCN(CC2CC=CCC2)CC1)c1ccccc1Cl (stereo not given)	inconclusive: 263 µM	
Nc1ccc(OCCCN2CCC(C(O)(c3ccccc3)c3ccccc3)CC2)cc1	active: 60.5 µM	
Cc1cccc(OCCCN2CCC(C(O)(c3ccccc3)c3ccccc3)CC2)c1	inconclusive: 618 µM	
OC(c1ccccc1)(c1ccccc1)C1CCN(CCCOc2cccc(F)c2)CC1	inconclusive: 444 µM	
FC(F)(F)c1ccc(OCCCN2CCC(=C(c3ccccc3)c3ccccc3)CC2)cc1		inactive; no saturation, 25% inh at 2mm
COc1ccc(OCCCN2CCC(=C(c3ccccc3)c3ccccc3)CC2)cc1	inconclusive: 1500 µM	
COc1cccc(C(=O)Nc2ccnn2C2CCN(CC3CC=CCC3)CC2)c1 (stereo not given)	inconclusive: 741 µM	
